Among the data in PMC10744139 are binding values, retold here.

Sequences of proteins named here, by UniProt entry; tags and fusion partners are left off. A change or cut given only in a name is not applied to a line headed by its entry.
UniProt Q9SRI1: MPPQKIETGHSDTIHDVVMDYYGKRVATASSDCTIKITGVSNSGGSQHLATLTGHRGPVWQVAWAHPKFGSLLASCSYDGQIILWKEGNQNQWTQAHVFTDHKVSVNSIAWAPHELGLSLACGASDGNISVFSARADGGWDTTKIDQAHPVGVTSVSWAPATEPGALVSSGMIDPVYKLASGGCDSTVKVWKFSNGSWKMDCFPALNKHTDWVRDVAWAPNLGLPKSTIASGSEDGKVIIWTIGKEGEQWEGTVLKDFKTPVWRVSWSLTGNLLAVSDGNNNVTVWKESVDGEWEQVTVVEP
UniProt O64740: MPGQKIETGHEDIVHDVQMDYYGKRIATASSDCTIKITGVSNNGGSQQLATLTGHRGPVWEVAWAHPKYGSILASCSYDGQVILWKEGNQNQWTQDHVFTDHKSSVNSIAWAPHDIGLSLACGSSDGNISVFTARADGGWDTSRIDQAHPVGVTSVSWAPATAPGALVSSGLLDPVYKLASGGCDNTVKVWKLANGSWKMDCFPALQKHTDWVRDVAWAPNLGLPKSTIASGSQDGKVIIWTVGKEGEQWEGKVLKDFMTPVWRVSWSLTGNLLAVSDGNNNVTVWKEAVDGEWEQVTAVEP
UniProt Q9C5G0: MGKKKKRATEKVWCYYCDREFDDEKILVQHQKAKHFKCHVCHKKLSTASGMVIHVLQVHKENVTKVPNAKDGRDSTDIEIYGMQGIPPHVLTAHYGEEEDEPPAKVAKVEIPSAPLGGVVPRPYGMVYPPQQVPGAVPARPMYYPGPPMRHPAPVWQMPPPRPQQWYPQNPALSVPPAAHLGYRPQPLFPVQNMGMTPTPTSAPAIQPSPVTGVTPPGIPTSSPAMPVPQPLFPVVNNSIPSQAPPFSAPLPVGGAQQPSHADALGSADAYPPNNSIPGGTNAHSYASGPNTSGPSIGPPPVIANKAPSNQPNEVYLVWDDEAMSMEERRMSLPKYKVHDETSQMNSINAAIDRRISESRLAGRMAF

The target of assay [1] is GST-tagged SEC13B (Arabidopsis (Col-0)) (UniProt Q9SRI1). Briefly: pull-down; GST fusions held on glutathione resin / anti-GST beads, His-tagged protein detected with anti-His; roughly equal amounts incubated at 16 °C for 14 h; 20 mM Tris-HCl pH 7.5, 150 mM NaCl, 0.1% Triton X-100, 10% glycerol.
In assay [2] the target is GST-tagged SEC13A (Arabidopsis (Col-0)) (UniProt O64740). Described as above.
Assay [3] deals with SEC13A fused with the N-terminal half of luciferase (Arabidopsis (Col-0)) (UniProt O64740). Briefly: split reporter; luciferase complementary imaging (LCI) in N. benthamiana leaves; nLUC and cLUC fusions co-infiltrated, signal read 48 h after infiltration.
For assay [4], the target named is SEC13B fused with the N-terminal half of luciferase (Arabidopsis (Col-0)) (UniProt Q9SRI1). The assay is described as above.
In assay [5] the target is SEC13A (yeast two-hybrid bait) (Arabidopsis (Col-0)) (UniProt O64740). Briefly: two-hybrid; point-to-point; pGBKT7 and pGADT7-Rec constructs co-transformed into yeast AH109; growth on medium lacking Trp, Leu, His and Ade (-WLHA), 3 days at 30 °C.
For assay [6], the target named is SEC13B (yeast two-hybrid bait) (Arabidopsis (Col-0)) (UniProt Q9SRI1). Described as above.

Results are given in words; binding and its absence hold for the method and conditions named. Binding can be weak; no strength is given. For some of these results: In cells and extracts the contact can be indirect.

On to “His-tagged SUF4 (from UniProt Q9C5G0 1-367)”, for which the binding entry in assay [1] and in assay [2] was “binds” throughout.

Consider “SUF4^Pro (amino acids 101 to 367 of SUF4) fused with the C-terminal half of luciferase (from UniProt Q9C5G0 101-367) (domain or fragment)”, for which the binding result in assay [3] and in assay [4] was “binds” each time.

Consider “SUF4^Pro, C-terminal fragment (amino acids 101 to 367) of SUF4 (pull-down) (from UniProt Q9C5G0 101-367) (domain or fragment)”, for which the binding entry in assay [1] and in assay [2] was “binds” each time.

With “SUF4 fused with the C-terminal half of luciferase (from UniProt Q9C5G0 1-367)”, the binding entry in assay [3] and in assay [4] was “binds” in each case.

Take “SUF4^Pro, C-terminal fragment (amino acids 101 to 367) of SUF4 (yeast two-hybrid) (from UniProt Q9C5G0 101-367) (domain or fragment)”: the binding entry in assay [5] and in assay [6] was “binds” in each case.
